PubChem BioAssay AID504834 (National Center for Advancing Translational Sciences (NCATS), 2011)
The campaign covered roughly 320,000 compounds. About 22,000 (6.9%) were called active. The inconclusive results got no clear call from the source; some entries with a clear call stand among them for comparison. Calls come from the whole dose curve; as a rule, active = well fitted inhibition curve with a large enough effect; inconclusive = small, poorly fitted or top-dose-only effect, or another doubt; inactive = no such curve, though single readings can be large or run the other way. Where the call is inconclusive, the potency comes from a doubtful curve fit.

Test: Primary qHTS for delayed death inhibitors of the malarial parasite plastid, 96 hour incubation
Conditions: P. falciparum luciferase reporter growth; series mostly up to 28.7 µM; activity change, negative = inhibition: at the top concentration
Summary of the method: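 Plates of compound plus infected erythrocytes (2% hematocrit, 0.05% parasitemia final) incubate 96 hours, 37 C, 5% CO2. Detection reagent added; reduced luminescence from the parasites' luciferase reporter flags inhibition.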
% is set by controls: 0 for no effect and ±100 for the full control effect; potency is the fitted concentration of half-maximal effect.

SMILES | Potency | activity change, negative = inhibition
Cc1ccc(OCC(=O)N/N=C2\CC(=O)CC(C)(C)C2)c(Br)c1 | active: 9.28 µM | 
Cc1ccc(-c2noc(CC(c3ccccc3)c3ccccc3)n2)cc1 | inconclusive: 13.1 µM [inhibitor, partial curve, poor fit] | 
CCS(=O)(=O)c1ccc2oc(Nc3ccc(C(C)C)cc3)nc2c1 | inconclusive: 4.65 µM [inhibitor, partial curve, poor fit] | 
CCn1c(CSc2nnc(-c3cccnc3)n2-c2ccccc2C)nc2cc(C(=O)O)ccc21 |  | inactive: 123%
CCOC(=O)C1(Cc2ccccc2C)CCCN(C(=O)c2ccc(OC)o2)C1 (centres undefined) | inconclusive: 11.7 µM [inhibitor, single point] | 
CC(=O)c1nn(-c2ccc(Br)cc2)cc1C(=O)c1ccco1 | inconclusive: 0.828 µM [inhibitor, full curve] | 
COc1ccc(-c2[nH]ncc2CN(C)CCc2c(C)n[nH]c2C)c(F)c1 | inconclusive: 18.5 µM [inhibitor, single point] | 
COc1ccc(C(=O)NCC(c2cccs2)N2CCc3ccccc32)cc1OC (centres undefined) | inconclusive: 14.7 µM [inhibitor, partial curve, poor fit] | 
O=S(=O)(c1ccccc1)N1CCN(C(=S)Nc2ccc(F)cc2)CC1 | inconclusive: 10.4 µM [inhibitor, single point] | 
CC1CCN(c2ccc(C(=O)OCC(=O)NCCN3C(=O)CSC3=O)cc2[N+](=O)[O-])CC1 |  | inactive: 33.6%
COc1ccc(OC)c(C(c2nnnn2Cc2ccco2)N2CCN(C)CC2)c1 (centres undefined) | inconclusive: 0.0029 µM [inhibitor, full curve, poor fit] | 
O=[N+]([O-])c1ccc(/C=N/Nc2ccccn2)cc1 | inconclusive: 10.4 µM [inhibitor, partial curve] | 
COc1ccc(CNC(=O)c2ccc(CS(=O)Cc3cccc(Cl)c3)o2)cc1 (centres undefined) | inconclusive: 16.5 µM [inhibitor, single point] | 
COc1ccc(C(=O)N2CCN(C(C)=O)CC2)cc1S(=O)(=O)N1CCOCC1 | inconclusive: 0.208 µM [inhibitor, full curve, poor fit] | 
COc1ccccc1C(=O)NCC(=O)NC(C)CCc1ccccc1 (centres undefined) | inconclusive: 18.5 µM [inhibitor, single point] | 
CC(=O)c1ccc(Oc2ncnc(N)c2[N+](=O)[O-])cc1 | inconclusive: 18.5 µM [inhibitor, single point] | 
Cc1cc(NC(=O)c2cc(-c3cccc(OCC(C)C)c3)nc3ccccc23)no1 | active: 2.33 µM | 
O=C(Nc1nc(-c2ccccn2)cs1)C1CC(=O)N(c2ccc3c(c2)OCCO3)C1 (centres undefined) | inconclusive: 10.4 µM [inhibitor, single point] | 
Cc1cc(Cl)ccc1OCC(=O)NCC(c1cccs1)N1CCOCC1 (centres undefined) | inconclusive: 9.28 µM [inhibitor, partial curve, poor fit] | 
CCN(CC)S(=O)(=O)c1ccc(N/N=C(\C)c2ccc(OC)cc2O)nc1 | inconclusive: 0.522 µM [inhibitor, full curve, poor fit] | 
Cc1cccc(Cc2cnc(N3C(=N)SC(c4ccccc4)C3=O)s2)c1 (centres undefined) | inconclusive: 9.28 µM [inhibitor, partial curve] | 
CSc1ncccc1C(=O)NC(C)CCc1ccccc1 (centres undefined) |  | inactive: 1.58%
O=C(O)c1ccccc1NCN1C(=O)C2CC=C(Cl)CC2C1=O (centres undefined) |  | inactive: 6.12%

Three entries drawn at random from those above:
SMILES | Potency | activity change, negative = inhibition
CCn1c(CSc2nnc(-c3cccnc3)n2-c2ccccc2C)nc2cc(C(=O)O)ccc21 |  | inactive: 123%
CSc1ncccc1C(=O)NC(C)CCc1ccccc1 (centres undefined) |  | inactive: 1.58%
CCS(=O)(=O)c1ccc2oc(Nc3ccc(C(C)C)cc3)nc2c1 | inconclusive: 4.65 µM [inhibitor, partial curve, poor fit] | 

More records follow.

SMILES | Potency | activity change, negative = inhibition
COc1ccc(CCNC(=O)c2ccc3c(=O)n4c(nc3c2)CCC4)cc1OC |  | inactive: 8.64%
Nc1c(N(CCC2=CCCCC2)C(=O)Cc2ccc(F)cc2)c(=O)[nH]c(=O)n1Cc1ccccc1 | inconclusive: 0.828 µM [inhibitor, full curve] | 
O=C(Nc1cccnc1)c1ccc(N2CCCC2)c([N+](=O)[O-])c1 |  | inactive: -18%
O=C(Nc1nc(-c2ccccn2)cs1)c1cc2ccccc2o1 | inconclusive: 2.33 µM [inhibitor, full curve] | 
COC(=O)c1ccc[n+](CC(=O)c2ccc(Br)cc2)c1 | inconclusive: 4.65 µM [inhibitor, partial curve, poor fit] | 
COc1ccccc1N1CCN(C(c2cccs2)C(C)NC(=O)C(=O)N2CCCCC2)CC1 (centres undefined) | inconclusive: 18.5 µM [inhibitor, single point] | 
COc1ccc(O)c(/C=N/NC(=S)Nc2cccc(S(=O)(=O)N(C)C)c2)c1 | active: 4.65 µM | 
COc1ccc(N2C(=O)CCC(C(C)=O)=C2C)cc1 | inconclusive: 18.5 µM [inhibitor, partial curve, poor fit] | 
CCC1(C)Cc2ccccc2-c2nc(NN)[nH]c(=O)c21 (centres undefined) | inconclusive: 18.5 µM [inhibitor, single point] | 
CCOC(=O)c1c(NC(=O)C2C3C=CC(C3)C2C(=O)O)sc2c1CC(C)(C)OC2 (centres undefined) | inconclusive: 1.04 µM [inhibitor, partial curve, poor fit] | 
Cn1c(CNC(=O)C(Cc2ccccc2)NC(=O)c2ccccc2)cc(=O)n(C)c1=O (centres undefined) | inconclusive: 5.86 µM [inhibitor, partial curve] | 
CC(C(=O)O)c1ccc2c(c1)[nH]c1ccc(Cl)cc12 (centres undefined) | inconclusive: 4.26 µM [inhibitor, full curve] | 
O=C(CN1C(=O)c2ccccc2C1=O)N1CCN(C(=O)c2ccco2)CC1 | inconclusive: 18.5 µM [inhibitor, single point] | 
Cc1ccc([N+](=O)[O-])cc1-c1[nH]c(-c2ccc(O)c(O)c2)nc1-c1ccccc1 |  | inactive: 19.8%
CCC1CCCCN1CCCNC(=O)c1cn(C)c2ccc(S(=O)(=O)N3CCOCC3)cc2c1=O (centres undefined) | inconclusive: 9.28 µM [inhibitor, partial curve] | 
Cc1ccc2c(c1)N(C(=O)CCC(=O)NC1CCN(Cc3ccccc3)CC1)CC(C)O2 (centres undefined) |  | inactive: 35.2%
CN(C)c1ccc(C(CNC(=O)c2ccc(C#N)cc2)c2c[nH]c3ccccc23)cc1 (centres undefined) | inconclusive: 18.5 µM [inhibitor, single point] | 
CC(=O)c1cc(F)ccc1OCC(=O)N1CCN(c2ccc(F)cc2)CC1 |  | inactive: -24.6%
Cc1ccc(C(=O)NCCn2cc(SCC(=O)Nc3cc(C)on3)c3ccccc32)cc1 | inconclusive: 9.28 µM [inhibitor, partial curve] | 
COc1ccc(/C(C)=N/N=C(N)N)c(O)c1 | inconclusive: 14.7 µM [inhibitor, single point] | 
Cn1nnnc1SCCNCC#Cc1ccccc1 | inconclusive: 4.15 µM [inhibitor, full curve, poor fit] | 
Cc1cccc(C)c1NC(=O)N1CCCCCCC1 |  | inactive: -16.3%
COc1ccc(/C=C/c2nc(-c3ccccc3O)n(-c3ccccc3)n2)cc1 |  | inactive: -95.4%

SMILES | Potency | activity change, negative = inhibition
CCOc1ccccc1CN1CCN(C/C=C/c2ccc(OC)cc2)CC1CCO (centres undefined) | inconclusive: 5.22 µM [inhibitor, single point] | 
O=C1C[C@H]2[C@H](CO)[C@@H](OC(=O)c3ccc(-c4ccccc4)cc3)C[C@H]2O1 |  | inactive: 52.1%
CCn1c(CSCc2ccc(F)cc2)nnc1SCC(=O)NCc1ccccc1 | inconclusive: 10.4 µM [inhibitor, partial curve, poor fit] | 
Cc1cccc(C(=O)Nc2ccc3c(c2)C(=O)N(CC(C)C)C3=O)c1 | inconclusive: 1.17 µM [inhibitor, full curve, poor fit] | 
FC(F)(F)Oc1ccc(NC(=S)Nc2ccc(OC(F)(F)F)cc2)cc1 | inconclusive: 2.62 µM [inhibitor, full curve, poor fit] | 
CCCCn1c(=O)c(Cc2ccccc2)c(O)c2ccccc21 | inconclusive: 1.85 µM [inhibitor, full curve] | 
C/C(=N/O)c1ccc2c(c1)OCCOCCOc1cc(/C(C)=N/O)ccc1OCCOCCO2 | active: 13.1 µM | 
Cc1ccc(C)c(NC2=NCC(=O)N2c2ccc3c(c2)OCCO3)c1 | inconclusive: 10.4 µM [inhibitor, partial curve] | 
Clc1ccc(Cc2nc(-c3ccncc3)no2)cc1 |  | inactive: -8.07%
CC(C)c1ccc(/C=C/C(=O)Nc2nc3ccc([N+](=O)[O-])cc3s2)cc1 | active: 2.33 µM | 
Cn1nc(C(F)(F)F)c(-c2ccc(F)cc2)c1NC(=O)Nc1ccc(F)cc1 | active: 0.465 µM | 
CCOC(=O)c1nsnc1NCCCl |  | inactive: 10.9%
c1ccc(Nc2c3c(nc4ncnn24)CCC3)cc1 | active: 11.7 µM | 
CCOC(=O)N1CCC(N2C(=O)c3ccccc3C2Nc2ccc(C)cc2)CC1 (centres undefined) | active: 9.28 µM | 
CNc1cccc2c1C(=O)c1ccccc1C2=O | active: 2.94 µM | 
O=S(=O)(Cc1ccccc1)/C1=C(\N2CCOCC2)CCCCCC1 | inconclusive: 7.38 µM [inhibitor, partial curve, poor fit] | 
O=C(N/N=C/c1ccc(N2CCCCC2)o1)c1ccccc1[N+](=O)[O-] |  | inactive: -14.7%
CCCCn1c(N)c(N(CCC(C)C)C(=O)COC(=O)c2ccc3ccccc3c2)c(=O)[nH]c1=O |  | inactive: 11.3%
COc1ccc2c(-c3cc4ccc(OCc5ccc(F)cc5)cc4oc3=O)cc(=O)oc2c1 |  | inactive: 21.7%
CCC(C)C(NC(=O)/C(=C\c1ccccc1)NC(=O)c1ccc(OC)cc1)C(=O)O (centres undefined) |  | inactive: -15.7%
O=C(COC(=O)c1ccc[nH]c1=O)NC1CCCC1 |  | inactive: 156%
O=C(Nc1nnc(CCOCCOCCc2nnc(NC(=O)c3ccco3)s2)s1)c1ccco1 | inconclusive: 4.65 µM [inhibitor, partial curve, poor fit] | 
C/C(=N/Nc1ncc(C(F)(F)F)cc1Cl)c1ccncc1 | inconclusive: 14.7 µM [inhibitor, partial curve, poor fit] | 
